In paper PMC7819943, “Rice protein-binding microarrays: a tool to detect cis-acting elements near promoter regions in rice”:
The list shows a part of the results.

By UniProt entry, the sequences of proteins in these tests, tags left out.
UniProt Q0JBA9, entry or part of it: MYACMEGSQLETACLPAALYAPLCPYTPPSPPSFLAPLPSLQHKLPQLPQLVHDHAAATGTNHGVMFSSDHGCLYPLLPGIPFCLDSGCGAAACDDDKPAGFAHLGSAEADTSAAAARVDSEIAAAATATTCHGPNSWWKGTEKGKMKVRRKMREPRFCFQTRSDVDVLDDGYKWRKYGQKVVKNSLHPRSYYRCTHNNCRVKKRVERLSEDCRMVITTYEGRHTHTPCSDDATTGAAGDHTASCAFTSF

target: OsWRKY34 (Oryza sativa, UniProt Q0JBA9 1-250); assay: protein-binding microarray (RPBM); PBS, 2% BSA, 51.3 ng/ul salmon testes DNA, 50 uM zinc acetate, 200 nM TF, 25 C, 1 h; high values mean tight binding; details: protein: recombinant; tags: N-terminal polyhistidine and DsRed monomer fusion (pET32a); label: CyDye5-dUTP incorporated in the synthesized complementary strand; 3' TTTTT single-stranded linker to array surface; dsDNA, one strand shown
How it was run: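 The binding signal is fluorescence intensity per array feature (arbitrary units). Readings came from an Axon 4000B scanner after a washed, 2% BSA-blocked, double-stranded custom Agilent array had been incubated for 1 h at 25 °C with 200 nM protein and 50 µM zinc acetate. The protein was a Ni–NTA-purified transcription factor fused N-terminally to polyhistidine and DsRed, expressed in E. coli BL21-CodonPlus.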

Sequence | binding signal
AAACTGGAACCATTCTCTTCTTCTTTTTTCCATTGATGAACGGAGTCACCTAGTGCAG | 9290 fluorescence intensity (a.u.)
CACTCCTCTGCTGCTCGTCGTCAATGCCATCCTCATCATGCGGAGTCACCTAGTGCAG | 10500 fluorescence intensity (a.u.)
GATTTTAGGGGTTTTTCATCGAATTTTATTTTTCATCACTCGGAGTCACCTAGTGCAG | 9850 fluorescence intensity (a.u.)
TAGGACGGAGGGAGTAGTTTATTTTTCAGTCTTTACTTTTCGGAGTCACCTAGTGCAG | 8520 fluorescence intensity (a.u.)
GCAGACAGGACAATACATTATACAACCATACAGTCATACACGGAGTCACCTAGTGCAG | 9330 fluorescence intensity (a.u.)
ACCCCAGCAACTCGCCCTGCCGGCGCCTCCTCAACCACCACGGAGTCACCTAGTGCAG | 13200 fluorescence intensity (a.u.)
GAGTAATGCCTTTTAGCCTCATCTTCTTATGTTCTTTGTCCGGAGTCACCTAGTGCAG | 10400 fluorescence intensity (a.u.)
TGACATTCCACCCCATAAGTCATTTTGTTGCAAATACCCACGGAGTCACCTAGTGCAG | 8180 fluorescence intensity (a.u.)
AGGCTAATATCCATATGTGTTGACTAAATTGTTCTTTGCTCGGAGTCACCTAGTGCAG | 10300 fluorescence intensity (a.u.)
CGTTCGCCCGTCCGCTGCCGCCCTCCACCAGCCGCACCCGCGGAGTCACCTAGTGCAG | 8580 fluorescence intensity (a.u.)
ACCAATGCAACCCAACGCAAGCGAAGCACATATGCCAAACCGGAGTCACCTAGTGCAG | 8100 fluorescence intensity (a.u.)
AACTTGGCATATTGAAATTTCTACTGTCATGCTTCCTTGTCGGAGTCACCTAGTGCAG | 10000 fluorescence intensity (a.u.)
ACTTCTTGTATTTACTGTTGACCAATTAGTCTCTTCCTAACGGAGTCACCTAGTGCAG | 13100 fluorescence intensity (a.u.)
ATTTTTGTTAGTTCTACTGCCAGTTTGACGCTATTTATTTCGGAGTCACCTAGTGCAG | 8230 fluorescence intensity (a.u.)
GGTGCTGGTCTTCGTTTTGTATCAATAATCATTCGTAGCGCGGAGTCACCTAGTGCAG | 8640 fluorescence intensity (a.u.)
AACCTTCGCTATTCCATTGCCATCGCCGCCACCTCCATTGCGGAGTCACCTAGTGCAG | 8430 fluorescence intensity (a.u.)
ACCTTGTACTTTTGTCTACATATGTGTCATTCTATCTTGGCGGAGTCACCTAGTGCAG | 8910 fluorescence intensity (a.u.)
TATATCCTCCTCATCTCTTCGCTTATCAAGATTCCTGTTACGGAGTCACCTAGTGCAG | 8600 fluorescence intensity (a.u.)
GAGATTGTGTGTGTATAGAATGAGTTGTGAATTTGGTAATCGGAGTCACCTAGTGCAG | 11100 fluorescence intensity (a.u.)
CTCGCTCTCTCCGATTCTCCAGCACAAACCGACGGCGAGCCGGAGTCACCTAGTGCAG | 8390 fluorescence intensity (a.u.)
AGCACATATTTGACCGTTCGTCTTATTCAAAAACTTTTATCGGAGTCACCTAGTGCAG | 8540 fluorescence intensity (a.u.)

Sequence | binding signal
CATATTTGTGTTCATTTATTAAGTCTATTCGTTATTTGTGCGGAGTCACCTAGTGCAG | 10100 fluorescence intensity (a.u.)
CTATAAATCCTGCTTTCCTTCTCTCTCTTATCTTCTCTCTCGGAGTCACCTAGTGCAG | 10000 fluorescence intensity (a.u.)
CATATCTATGCCTTTCATGTTTCAAATGCTTCCTGTTTGTCGGAGTCACCTAGTGCAG | 9420 fluorescence intensity (a.u.)
GAAGGCGTACTTTGACTTTACGTGACCCGTCCCCGGCCGCCGGAGTCACCTAGTGCAG | 9650 fluorescence intensity (a.u.)
TGAGAGATTCCTTCCTTGTTAACGGTGTTGCCTTCAAGAACGGAGTCACCTAGTGCAG | 9330 fluorescence intensity (a.u.)
AATTTACATCTCGGCCACCTAACGGTAACATCTTAATCCACGGAGTCACCTAGTGCAG | 9880 fluorescence intensity (a.u.)
TATAATTGGTTTGAGGTTTTTTCATCTAAGTTTATTTTTCCGGAGTCACCTAGTGCAG | 9200 fluorescence intensity (a.u.)
TTTCGACCGTACCGTTTTTGGCTATTTTTAAATTTTATTTCGGAGTCACCTAGTGCAG | 11700 fluorescence intensity (a.u.)
ATGGCGCACATGCTTGGATGGGCCGGCCCGTCGCTCCACGCGGAGTCACCTAGTGCAG | 8192 fluorescence intensity (a.u.)
GGTAGTACTCTCGCATCTTTTGAAGCCTAGCTTCCTTGTCCGGAGTCACCTAGTGCAG | 8070 fluorescence intensity (a.u.)
TTGCAGTATCCCGGTTGCCCACCTTTCATGGTCCATCACCCGGAGTCACCTAGTGCAG | 8490 fluorescence intensity (a.u.)
CCGGGCCGGTCACTGACATTGTGAGCCCTGTCCATTTTAGCGGAGTCACCTAGTGCAG | 8210 fluorescence intensity (a.u.)
GTTGGATTATTGTGAGTCTTGTCTTTCTTATCTATAGTTGCGGAGTCACCTAGTGCAG | 9420 fluorescence intensity (a.u.)
TAGTAAACAACAGAAGTTGTTCTGTATGGTCTACTTGTTTCGGAGTCACCTAGTGCAG | 8880 fluorescence intensity (a.u.)
ATCCAACGAAATGGTGCTACTTTCCACCCTTTTTCTTTGGCGGAGTCACCTAGTGCAG | 8030 fluorescence intensity (a.u.)
CACCAACTCACTGCTCCTCTCAGTGTGCCACTACCGGACACGGAGTCACCTAGTGCAG | 9130 fluorescence intensity (a.u.)
CGTCGTGTGTCCAAACTTCCTAGGCAGTTTTATCCCACTTCGGAGTCACCTAGTGCAG | 14000 fluorescence intensity (a.u.)
ACCCATGCTGTTATCCGGTTCACAAGCAAGCCCACATCTGCGGAGTCACCTAGTGCAG | 8320 fluorescence intensity (a.u.)
CCCTTTCTCAGTCCACCCCATGTGTGGTATTTCCCTGTCTCGGAGTCACCTAGTGCAG | 8440 fluorescence intensity (a.u.)
GCATGCTCTGGTCCCCGCCGTTCCTTCCGCCGCATGCCCCCGGAGTCACCTAGTGCAG | 8030 fluorescence intensity (a.u.)
TTTAGCCTTTTATCTTTTTTGTCTTAATTATAGGGTTAGTCGGAGTCACCTAGTGCAG | 8050 fluorescence intensity (a.u.)

Sequence | binding signal
GCTCGCAATACCATATCATGATTCATCGTATCTTTTTTTTCGGAGTCACCTAGTGCAG | 11500 fluorescence intensity (a.u.)
TGCACCTCTCAGTTCGTTTCCTGCTTAGTTCTTCAGTTCTCGGAGTCACCTAGTGCAG | 9370 fluorescence intensity (a.u.)
ACAAGCCGTTGGTAGTTCCCTTGATCGCTTCCAATAGTCGCGGAGTCACCTAGTGCAG | 8090 fluorescence intensity (a.u.)
GGTGGCGGGGCATCTCGCCGCCGACGGCTCGAGGAGGAAACGGAGTCACCTAGTGCAG | 18400 fluorescence intensity (a.u.)
GCACATATTCCATCAGGCATTATCCGCATTTTTATTGTGCCGGAGTCACCTAGTGCAG | 9310 fluorescence intensity (a.u.)
TCTCCTTATTTTCTGTTGTATTCCGTCTAAGGCATAGTTCCGGAGTCACCTAGTGCAG | 10400 fluorescence intensity (a.u.)
CTCGTTTATCCCCTATATTTTTACATGTCAGCTATTCTTACGGAGTCACCTAGTGCAG | 8380 fluorescence intensity (a.u.)
GTGGAGGGAGTACATGCCTTCGATGATATTTTCTGCTGCTCGGAGTCACCTAGTGCAG | 8600 fluorescence intensity (a.u.)
TACCATACAAATACTGACCTCTGCTTCGTGTACTCTGCCACGGAGTCACCTAGTGCAG | 9800 fluorescence intensity (a.u.)
ATTGAGTCTCCTCTAATCCTCCTCGATGTACCTCATTCCTCGGAGTCACCTAGTGCAG | 12400 fluorescence intensity (a.u.)
TTTTGTGTTTTGCTTCCACACGTTAGTGGTTCGTCCTGTTCGGAGTCACCTAGTGCAG | 10100 fluorescence intensity (a.u.)
ACAGGCGATATGTCACCCTATTTCTGTTGCTGTTCAACGACGGAGTCACCTAGTGCAG | 8410 fluorescence intensity (a.u.)
ACTATATTGCCTGCACCAGGAATCCTCATTCTTTCCTATTCGGAGTCACCTAGTGCAG | 11800 fluorescence intensity (a.u.)
TTAGTTACTTTTATTTCTCTCCTTTTTCTTCTAATCTCCTCGGAGTCACCTAGTGCAG | 8200 fluorescence intensity (a.u.)
ACCCCAACGCAACCACTCTTCTCTACTACAATCGTTACTCCGGAGTCACCTAGTGCAG | 9310 fluorescence intensity (a.u.)
AAATCGGGGAAGCTTCTGGACCTAGCTCTTCTCGCTGTTTCGGAGTCACCTAGTGCAG | 9640 fluorescence intensity (a.u.)
CTGCGTTACTTCGACATTGCCCGACGTGTTGACTGTGTTGCGGAGTCACCTAGTGCAG | 9230 fluorescence intensity (a.u.)
GGCGTGCATTGCAACTTGGATTCTGATTAACTGTCTGCTACGGAGTCACCTAGTGCAG | 9010 fluorescence intensity (a.u.)
ATCAGCACCACACCACTGCTCAAACTACTCCACTTGCTCCCGGAGTCACCTAGTGCAG | 10100 fluorescence intensity (a.u.)
ACGCCCAACCCACTCGATCGTCCGGTGCCCCACCGCCGGCCGGAGTCACCTAGTGCAG | 9030 fluorescence intensity (a.u.)
ACTTATCTCCTCGCTAATTCTCTTGCCATATCAATTTTTTCGGAGTCACCTAGTGCAG | 10500 fluorescence intensity (a.u.)

Sequence | binding signal
CAAAGGCGTCCCGATTTTCTCTCTCTGGGTTCCGTACTCTCGGAGTCACCTAGTGCAG | 10100 fluorescence intensity (a.u.)
CACTTGCAATATCTCTATATTCTCTGTTCATATGCATGCACGGAGTCACCTAGTGCAG | 8140 fluorescence intensity (a.u.)
ATATTTGATGCCGTTGACTTTTTAAAATATATTTGATCATCGGAGTCACCTAGTGCAG | 16400 fluorescence intensity (a.u.)
CGTCACATCGAACTTTTCTATACACCAACTTCTAACTTTTCGGAGTCACCTAGTGCAG | 8890 fluorescence intensity (a.u.)
GCTTGGATTCCCACGTTTTCCACCCACCAAGTCAGCCATCCGGAGTCACCTAGTGCAG | 11700 fluorescence intensity (a.u.)
AACTTGACACGGGTATTTGTATTTATGGCTAATTTTTTTTCGGAGTCACCTAGTGCAG | 9690 fluorescence intensity (a.u.)
GATGTCATCTGCGCCGGTTTTGATAGTTGAGGGACCCATTCGGAGTCACCTAGTGCAG | 10400 fluorescence intensity (a.u.)
GCACAGCTCTCTCCTCCGGCCGCCACCTTCTCTCCGGTGACGGAGTCACCTAGTGCAG | 8690 fluorescence intensity (a.u.)
AGCCCAAGTCTTACCCACCACAAGCCCAACACACCACACTCGGAGTCACCTAGTGCAG | 9260 fluorescence intensity (a.u.)
CCACAGTTAATTCCACACATACATGCACGCGTCTATATATCGGAGTCACCTAGTGCAG | 11200 fluorescence intensity (a.u.)
GATGCACCACTGCTGCGTCGCACGTTCCACCCCATTCCACCGGAGTCACCTAGTGCAG | 8330 fluorescence intensity (a.u.)
ATATATATATATATATATATATATATATATATGAGCGGGACGGAGTCACCTAGTGCAG | 8820 fluorescence intensity (a.u.)
CTGCTTGCGCTCGCATCTCACCGCGTCTCATTCCATCTACCGGAGTCACCTAGTGCAG | 12300 fluorescence intensity (a.u.)
CCTGAGCTTTCGATCTCTTCGGAGTGGTTTCTTGTTCTTTCGGAGTCACCTAGTGCAG | 10500 fluorescence intensity (a.u.)
AATCGATTCGAAATTTCAATGAAAATTTTCCCTCCACACCCGGAGTCACCTAGTGCAG | 8330 fluorescence intensity (a.u.)
GCGTGGTGCAGTTTGCAGGGGATCCTCATTCGACTGTATCCGGAGTCACCTAGTGCAG | 8100 fluorescence intensity (a.u.)
AACACTTACAACATCTCTCTCTCTCTCTCTCTCTCTCTCCCGGAGTCACCTAGTGCAG | 8670 fluorescence intensity (a.u.)
GTGCTTTCTTTCTTTAATTTCCTGTGCAGAAATATACAGGCGGAGTCACCTAGTGCAG | 8690 fluorescence intensity (a.u.)
GATCATTTACCACACAGCTCTTCACCTTTCCTGTGCCACCCGGAGTCACCTAGTGCAG | 11000 fluorescence intensity (a.u.)
GAACTATGTTTTTCTTTTTACAGTCGAGTTTTGAATATTTCGGAGTCACCTAGTGCAG | 8930 fluorescence intensity (a.u.)
CTCCACCATTTATTTACTTGTTCATTTGCTAATTAAGGACCGGAGTCACCTAGTGCAG | 9190 fluorescence intensity (a.u.)

Shown as tab-separated lines: part of the list above
Sequence	binding signal
TACCATACAAATACTGACCTCTGCTTCGTGTACTCTGCCACGGAGTCACCTAGTGCAG	9800 fluorescence intensity (a.u.)
ATTGAGTCTCCTCTAATCCTCCTCGATGTACCTCATTCCTCGGAGTCACCTAGTGCAG	12400 fluorescence intensity (a.u.)
TTTTGTGTTTTGCTTCCACACGTTAGTGGTTCGTCCTGTTCGGAGTCACCTAGTGCAG	10100 fluorescence intensity (a.u.)
ACAGGCGATATGTCACCCTATTTCTGTTGCTGTTCAACGACGGAGTCACCTAGTGCAG	8410 fluorescence intensity (a.u.)
ACTATATTGCCTGCACCAGGAATCCTCATTCTTTCCTATTCGGAGTCACCTAGTGCAG	11800 fluorescence intensity (a.u.)
TTAGTTACTTTTATTTCTCTCCTTTTTCTTCTAATCTCCTCGGAGTCACCTAGTGCAG	8200 fluorescence intensity (a.u.)
ACCCCAACGCAACCACTCTTCTCTACTACAATCGTTACTCCGGAGTCACCTAGTGCAG	9310 fluorescence intensity (a.u.)
AAATCGGGGAAGCTTCTGGACCTAGCTCTTCTCGCTGTTTCGGAGTCACCTAGTGCAG	9640 fluorescence intensity (a.u.)
CTGCGTTACTTCGACATTGCCCGACGTGTTGACTGTGTTGCGGAGTCACCTAGTGCAG	9230 fluorescence intensity (a.u.)
GGCGTGCATTGCAACTTGGATTCTGATTAACTGTCTGCTACGGAGTCACCTAGTGCAG	9010 fluorescence intensity (a.u.)
ATCAGCACCACACCACTGCTCAAACTACTCCACTTGCTCCCGGAGTCACCTAGTGCAG	10100 fluorescence intensity (a.u.)
ACGCCCAACCCACTCGATCGTCCGGTGCCCCACCGCCGGCCGGAGTCACCTAGTGCAG	9030 fluorescence intensity (a.u.)
ACTTATCTCCTCGCTAATTCTCTTGCCATATCAATTTTTTCGGAGTCACCTAGTGCAG	10500 fluorescence intensity (a.u.)
CAAAGGCGTCCCGATTTTCTCTCTCTGGGTTCCGTACTCTCGGAGTCACCTAGTGCAG	10100 fluorescence intensity (a.u.)
